Measurements reported in PubChem BioAssay AID1671195 (Yale University, 2021)
The deposit covers about 22,000 reagents; below is a part drawn at random. About 1,510 of them (6.9%) count as active. 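Active includes knockdowns raising or lowering LDL uptake; positive z-scores mean more uptake, negative mean less.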 Entries without a mark were called inactive. Reagent sequences are not shown.

Test: 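Knockdowns that increase or decrease uptake of fluorescent LDL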 (primary screen)
System: human Huh7 hepatoma cells
Reagent: siRNA pool against human genes, 18 nM
Timing: about 2 to 2.5 days of knockdown, then 8 h LDL uptake
Challenge: DiI-labelled LDL at 30 µg/ml for 8 h, in lipoprotein-deficient serum medium
Measured: 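Per-cell DiI-LDL intensity by automated imaging; well means scaled to the plate median and given as a robust z-score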
Reading the numbers: robust z-score: higher = more LDL uptake after knockdown
Call rule: 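a gene counts as active if at least two replicate z-scores exceed ±2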

MFN1P1 (MFN1 pseudogene 1): robust z-score, replicate 1 = 2.87; robust z-score, replicate 2 = 1.54; robust z-score, replicate 3 = 1.03
STOX1 (storkhead box 1): robust z-score, replicate 1 = -0.456; robust z-score, replicate 2 = -0.637; robust z-score, replicate 3 = -0.716
LTA4H (leukotriene A4 hydrolase): robust z-score, replicate 1 = -0.982; robust z-score, replicate 2 = -0.433; robust z-score, replicate 3 = -1.25
CYP4F3 (cytochrome P450 family 4 subfamily F member 3): robust z-score, replicate 1 = 0.233; robust z-score, replicate 2 = 1.08; robust z-score, replicate 3 = 0.789
SPATA21 (spermatogenesis associated 21): robust z-score, replicate 1 = -0.768; robust z-score, replicate 2 = -0.761; robust z-score, replicate 3 = -0.7
ARGLU1 (arginine and glutamate rich 1): robust z-score, replicate 1 = -1.41; robust z-score, replicate 2 = -1.97; robust z-score, replicate 3 = -1.55
SRRM4 (serine/arginine repetitive matrix 4): robust z-score, replicate 1 = 0.945; robust z-score, replicate 2 = 0.749; robust z-score, replicate 3 = 0.533
ZKSCAN7 (zinc finger with KRAB and SCAN domains 7): robust z-score, replicate 1 = -1.81; robust z-score, replicate 2 = -1.71; robust z-score, replicate 3 = -1.57
LINC01019 (long independently transcribed non-coding RNA 1019): robust z-score, replicate 1 = -0.91; robust z-score, replicate 2 = -0.833; robust z-score, replicate 3 = -0.975
LOC144962 (retired record): robust z-score, replicate 1 = 0.526; robust z-score, replicate 2 = -0.53; robust z-score, replicate 3 = 1.16
SLC25A46: robust z-score, replicate 1 = 0.924; robust z-score, replicate 2 = 1.24; robust z-score, replicate 3 = 0.523
WFDC5 (WAP four-disulfide core domain 5): robust z-score, replicate 1 = -0.873; robust z-score, replicate 2 = -1.71; robust z-score, replicate 3 = -1.52
SACS (sacsin molecular chaperone): robust z-score, replicate 1 = -0.542; robust z-score, replicate 2 = -0.742; robust z-score, replicate 3 = -0.802
FIGNL2 (fidgetin like 2): robust z-score, replicate 1 = 1.39; robust z-score, replicate 2 = 0.557; robust z-score, replicate 3 = 0.908
ORMDL1 (ORMDL sphingolipid biosynthesis regulator 1): robust z-score, replicate 1 = 0.771; robust z-score, replicate 2 = 0.789; robust z-score, replicate 3 = 1.4
ATP2A2: robust z-score, replicate 1 = -1.03; robust z-score, replicate 2 = -0.953; robust z-score, replicate 3 = -0.75
MSH3 (mutS homolog 3): robust z-score, replicate 1 = 2.01 (active); robust z-score, replicate 2 = 2.17; robust z-score, replicate 3 = 1.99
GNG12 (G protein subunit gamma 12): robust z-score, replicate 1 = -0.659; robust z-score, replicate 2 = -0.662; robust z-score, replicate 3 = -0.519
USP36 (ubiquitin specific peptidase 36): robust z-score, replicate 1 = -0.265; robust z-score, replicate 2 = -0.364; robust z-score, replicate 3 = -0.286
SYBU (syntabulin): robust z-score, replicate 1 = -1.33; robust z-score, replicate 2 = 0.0368; robust z-score, replicate 3 = 0.491
ZNF385B (zinc finger protein 385B): robust z-score, replicate 1 = 0.543; robust z-score, replicate 2 = 0.541; robust z-score, replicate 3 = 0.255
NDUFB2 (NADH:ubiquinone oxidoreductase subunit B2): robust z-score, replicate 1 = 1.37; robust z-score, replicate 2 = 1.05; robust z-score, replicate 3 = 0.746
MSC (musculin): robust z-score, replicate 1 = 0.0564; robust z-score, replicate 2 = 1.18; robust z-score, replicate 3 = 0.372
PCDHA7 (protocadherin alpha 7): robust z-score, replicate 1 = -0.987; robust z-score, replicate 2 = -0.606; robust z-score, replicate 3 = -0.472

No new results follow: 4 of the entries above.
ATP2A2: robust z-score, replicate 1 = -1.03; robust z-score, replicate 2 = -0.953; robust z-score, replicate 3 = -0.75
MSH3 (mutS homolog 3): robust z-score, replicate 1 = 2.01 (active); robust z-score, replicate 2 = 2.17; robust z-score, replicate 3 = 1.99
GNG12 (G protein subunit gamma 12): robust z-score, replicate 1 = -0.659; robust z-score, replicate 2 = -0.662; robust z-score, replicate 3 = -0.519
USP36 (ubiquitin specific peptidase 36): robust z-score, replicate 1 = -0.265; robust z-score, replicate 2 = -0.364; robust z-score, replicate 3 = -0.286
